According to paper PMC6039025:
Results are given in words; binding and its absence hold for the method and conditions named. Some binding calls cover weakened binding; strength is not graded here. Where a sequence is shown, tags or fusion partners need not be part of it.

T1: Smc4-A1376S-Q1377A, 3xStrepTagII-tagged (S. cerevisiae) (UniProt Q12267)
T1 sequence: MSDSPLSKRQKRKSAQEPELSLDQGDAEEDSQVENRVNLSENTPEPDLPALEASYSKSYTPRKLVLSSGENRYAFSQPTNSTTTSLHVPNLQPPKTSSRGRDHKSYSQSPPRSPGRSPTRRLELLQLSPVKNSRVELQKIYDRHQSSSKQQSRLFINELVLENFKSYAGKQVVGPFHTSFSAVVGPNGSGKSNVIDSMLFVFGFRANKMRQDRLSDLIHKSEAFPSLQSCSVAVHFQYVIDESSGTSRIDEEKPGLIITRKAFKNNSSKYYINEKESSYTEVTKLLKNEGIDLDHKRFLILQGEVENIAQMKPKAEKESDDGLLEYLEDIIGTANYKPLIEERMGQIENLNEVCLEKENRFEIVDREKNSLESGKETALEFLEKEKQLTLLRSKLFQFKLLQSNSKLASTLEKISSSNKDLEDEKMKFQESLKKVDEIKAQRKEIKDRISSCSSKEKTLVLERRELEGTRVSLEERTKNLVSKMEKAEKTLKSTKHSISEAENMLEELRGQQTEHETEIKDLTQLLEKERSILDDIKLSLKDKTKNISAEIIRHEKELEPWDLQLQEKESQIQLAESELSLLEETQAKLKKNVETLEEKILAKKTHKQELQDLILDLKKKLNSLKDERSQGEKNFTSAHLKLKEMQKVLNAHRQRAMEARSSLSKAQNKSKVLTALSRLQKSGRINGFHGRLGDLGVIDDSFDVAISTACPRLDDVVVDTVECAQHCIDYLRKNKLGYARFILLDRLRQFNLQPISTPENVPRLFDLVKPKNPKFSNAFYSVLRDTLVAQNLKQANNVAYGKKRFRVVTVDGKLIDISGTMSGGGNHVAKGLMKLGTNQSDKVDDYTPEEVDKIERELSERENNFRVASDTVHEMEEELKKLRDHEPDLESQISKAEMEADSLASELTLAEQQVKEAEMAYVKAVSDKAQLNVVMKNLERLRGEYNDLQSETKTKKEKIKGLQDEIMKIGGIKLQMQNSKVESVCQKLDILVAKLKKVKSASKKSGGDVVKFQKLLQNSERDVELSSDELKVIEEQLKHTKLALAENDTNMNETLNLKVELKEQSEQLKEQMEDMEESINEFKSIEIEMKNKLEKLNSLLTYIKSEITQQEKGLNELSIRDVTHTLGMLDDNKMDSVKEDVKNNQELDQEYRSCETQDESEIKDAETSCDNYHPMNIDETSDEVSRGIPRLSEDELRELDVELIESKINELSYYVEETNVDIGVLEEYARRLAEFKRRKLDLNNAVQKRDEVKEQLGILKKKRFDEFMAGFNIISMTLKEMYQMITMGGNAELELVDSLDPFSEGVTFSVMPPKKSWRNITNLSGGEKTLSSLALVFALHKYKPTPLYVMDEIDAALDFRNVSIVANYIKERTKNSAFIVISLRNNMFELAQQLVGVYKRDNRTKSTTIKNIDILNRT

B1: Smc2 (protein, UniProt P38989 1-1170)
chain: MKVEELIIDGFKSYATRTVITDWDPQFNAITGLNGSGKSNILDAICFVLGIASMSTVRASSLQDLIYKRGQAGVTKASVTIVFDNTDKSNSPIGFTNSPQISVTRQVVLGGTSKYLINGHRAPQQSVLQLFQSVQLNINNPNFLIMQGKITKVLNMKPSEILSLIEEAAGTKMFEDRREKAERTMSKKETKLQENRTLLTEEIEPKLEKLRNEKRMFLEFQSTQTDLEKTERIVVSYEYYNIKHKHTSIRETLENGETRMKMLNEFVKKTSEEIDSLNEDVEEIKLQKEKELHKEGTISKLENKENGLLNEISRLKTSLSIKVENLNDTTEKSKALESEIASSSAKLIEKKSAYANTEKDYKMVQEQLSKQRDLYKRKEELVSTLTTGISSTGAADGGYNAQLAKAKTELNEVSLAIKKSSMKMELLKKELLTIEPKLKEATKDNELNVKHVKQCQETCDKLRARLVEYGFDPSRIKDLKQREDKLKSHYYQTCKNSEYLKRRVTNLEFNYTKPYPNFEASFVHGVVGQLFQIDNDNIRYATALQTCAGGRLFNVVVQDSQTATQLLERGRLRKRVTIIPLDKIYTRPISSQVLDLAKKIAPGKVELAINLIRFDESITKAMEFIFGNSLICEDPETAKKITFHPKIRARSITLQGDVYDPEGTLSGGSRNTSESLLVDIQKYNQIQKQIETIQADLNHVTEELQTQYATSQKTKTIQSDLNLSLHKLDLAKRNLDANPSSQIIARNEEILRDIGECENEIKTKQMSLKKCQEEVSTIEKDMKEYDSDKGSKLNELKKELKLLAKELEEQESESERKYDLFQNLELETEQLSSELDSNKTLLHNHLKSIESLKLENSDLEGKIRGVEDDLVTVQTELNEEKKRLMDIDDELNELETLIKKKQDEKKSSELELQKLVHDLNKYKSNTNNMEKIIEDLRQKHEFLEDFDLVRNIVKQNEGIDLDTYRERSKQLNEKFQELRKKVNPNIMNMIENVEKKEAALKTMIKTIEKDKMKIQETISKLNEYKRETLVKTWEKVTLDFGNIFADLLPNSFAKLVPCEGKDVTQGLEVKVKLGNIWKESLIELSGGQRSLIALSLIMALLQFRPAPMYILDEVDAALDLSHTQNIGHLIKTRFKGSQFIVVSLKEGMFANANRVFRTRFQDGTSVVSIM
B2: Brn1-3xHA-12xHIS (protein, UniProt P38170 1-754)
chain: MTTQLRYENNDDDERVEYNLFTNRSTMMANFEEWIKMATDNKINSRNSWNFALIDYFYDLDVLKDGENNINFQKASATLDGCIKIYSSRVDSVTTETGKLLSGLAQRKTNGASNGDDSNGGNGEGLGGDSDEANIEIDPLTGMPISNDPDVNNTRRRVYNRVLETTLVEFETIKMKELDQELIIDPLFKKALVDFDEGGAKSLLLNTLNIDNTARVIFDASIKDTQNVGQGKLQRKEEELIERDSLVDDENEPSQSLISTRNDSTVNDSVISAPSMEDEILSLGMDFIKFDQIAVCEISGSIEQLRNVVEDINQAKDFIENVNNRFDNFLTEEELQAAVPDNAEDDSDGFDMGMQQELCYPDENHDNTSHDEQDDDNVNSTTGSIFEKDLMAYFDENLNRNWRGREHWKVRNFKKANLVNKESDLLEETRTTIGDTTDKNTTDDKSMDTKKKHKQKKVLEIDFFKTDDSFEDKVFASKGRTKIDMPIKNRKNDTHYLLPDDFHFSTDRITRLFIKPGQKMSLFSHRKHTRGDVSSGLFEKSTVSANHSNNDIPTIADEHFWADNYERKEQEEKEKEQSKEVGDVVGGALDNPFEDDMDGVDFNQAFEGTDDNEEASVKLDLQDDEDHKFPIRENKVTYSRVSKKVDVRRLKKNVWRSINNLIQEHDSRKNREQSSNDSETHTEDESTKELKFSDIIQGISKMYSDDTLKDISTSFCFICLLHLANEHGLQITHTENYNDLIVNYEDLATTQAAS
B3: Ycs4 (protein, UniProt Q06156 1-1176)
chain: MSGFSLSEYLTKFQTTDRESYPRLQDPSRELNVIIDQLAVSPEQIDASPDSLEALIDLCHDFPHLTPKLQTQLSYLISSSLSNLSKDIKANLSSNVNFTEIGGLIPQWKRHLEEYGYLIQVLLTFLQDELHKVSSQSTNLNRSAKNSKNDSANVELFKRDCNQMENLLESITKLLEINLSKIFQTTPEKDLFIGLFTRPLFVLLEIEPVTKVSSLKMFIQRILAMCVKNHGQSSSIQSSLMTNLTYFLHLSVFNAELLKLLNDEYNYPQLTEDILKEISTRVFNAKDTTGPKAISNFLIKLSELSPGIMLRQMNLVITLLNNSSITLRCSVVEACGNIVAELAQDPQTMEHYKQQIAVLIELLEERFQDSNPYVRTKAIQGCSKICDLSSKFNKSKAKFTSLAVRSLQDRSSLVRRNSVKLLSKLLLKHPFKAIHGSQLRLSEWEEYLKGSESQLNSTLKKVESQETLNDTIERSLIEEEVEQDEGQCRTELEGSFNKSAELSRIENEVENINATNTSVLMKLKLMIVYYKDAISFIKEIHKSIELISNLLFSKNRNEVLESMDFLVLADAFDIELSEFGIKKMLHLVWMKGTNDEGTSISVHLIECYKQLFLTAPDSCNMQEKAAHIAKNLINLSIGASIADLASLEQLLGMMYEQKLIDQHVINILWAIYNSASKASMQKEQNVNNRDSEKGFSKEQIHGSIIILGMLSLADNEIALKGLESLLNIGLGAVGLKDLTLCRYSCLALERMVPKRSTIITKAINQELEDVAVKKLYAIIINYTKDNEYYPMCEQALSALFTISSKPDILATDLIREKTMMTFGKPEEEDSILSLEQSSRVVSLSQLLFIVGQVAIKTLVYLEKCEAEFKKRKIEAETRNGKVKNQGADVTNTTQDNGGDKELEMIGGTNEDDFTDAIQFVKENELLFGEKSILGKFCPIVEEIVSNSSRFSDPMLQRTATLCLEKLMCLSSKYCEKSLPLLITVMEKSPDPTIRSNAVLGLGDMAVCFNNLVDENTDYLYRRLHDENLMVQRTCLMTVTFLILAGQVKVKGQLGEMAKCLDNPDQGISDMCRLFFTELASKDNAIYNGFIDIFSNLSSDDLLGKESFKKIIKFLLTFIDKERHQKQLNEKLVGRLRKCETQKQWDDIAFVLNNLPYKNEDVTALLEQGFKVVSAKE
B4: Ycg1-3xFLAG-9xHIS (protein, UniProt Q06680 1-1035)
chain: MQDPDGIDINTKIFNSVAEVFQKAQGSYAGHRKHIAVLKKIQSKAVEQGYEDAFNFWFDKLVTKILPLKKNEIIGDRIVKLVAAFIASLERELILAKKQNYKLTNDEEGIFSRFVDQFIRHVLRGVESPDKNVRFRVLQLLAVIMDNIGEIDESLFNLLILSLNKRIYDREPTVRIQAVFCLTKFQDEEQTEHLTELSDNEENFEATRTLVASIQNDPSAEVRRAAMLNLINDNNTRPYILERARDVNIVNRRLVYSRILKSMGRKCFDDIEPHIFDQLIEWGLEDRELSVRNACKRLIAHDWLNALDGDLIELLEKLDVSRSSVCVKAIEALFQSRPDILSKIKFPESIWKDFTVEIAFLFRAIYLYCLDNNITEMLEENFPEASKLSEHLNHYILLRYHHNDISNDSQSHFDYNTLEFIIEQLSIAAERYDYSDEVGRRSMLTVVRNMLALTTLSEPLIKIGIRVMKSLSINEKDFVTMAIEIINDIRDDDIEKQEQEEKIKSKKINRRNETSVDEEDENGTHNDEVNEDEEDDNISSFHSAVENLVQGNGNVSESDIINNLPPEKEASSATIVLCLTRSSYMLELVNTPLTENILIASLMDTLITPAVRNTAPNIRELGVKNLGLCCLLDVKLAIDNMYILGMCVSKGNASLKYIALQVIVDIFSVHGNTVVDGEGKVDSISLHKIFYKVLKNNGLPECQVIAAEGLCKLFLADVFTDDDLFETLVLSYFSPINSSNEALVQAFAFCIPVYCFSHPAHQQRMSRTAADILLRLCVLWDDLQSSVIPEVDREAMLKPNIIFQQLLFWTDPRNLVNQTGSTKKDTVQLTFLIDVLKIYAQIEKKEIKKMIITNINAIFLSSEQDYSTLKELLEYSDDIAENDNLDNVSKNALDKLRNNLNSLIEEINERSETQTKDENNTANDQYSSILGNSFNKSSNDTIEHAADITDGNNTELTKTTVNISAVDNTTEQSNSRKRTRSEAEQIDTSKNLENMSIQDTSTVAKNVSFVLPDEKSDAMSIDEEDKDSESFSEVC

target: T1, Smc4-A1376S-Q1377A, 3xStrepTagII-tagged (S. cerevisiae); assay: tandem affinity co-purification (Ni-NTA, Strep-Trap) + SEC; five condensin subunits co-overexpressed in yeast; extract in 500 mM NaCl, 10 mM Tris-HCl pH 8.0, 10% glycerol; Ni-NTA (His tags on Brn1 and Ycg1), then Strep-Trap HP (3xStrepTagII on Smc4), then Superose 6 10/300 in 200 mM NaCl, 50 mM Tris-HCl pH 8.0; subunits seen by SDS-PAGE and Coomassie staining

binding, binds:
B1
B2
B3
B4
